Test results from patent US6703042B1, “Salts of L-carnitine and lower alkanoyl L-carnitine” (Sigma-Tau Industries Farmaceutiche Riunite S.p.A., priority 1999, dated 2004).
Structures can show the parent of a compound that is named as a salt. For at least one compound, name, drawing or mass did not settle the structure.

Key:
[1] = Hygroscopicity of the solid as stated in the preparation examples; format: physicochemical
[2] = Hygroscopicity: increase in weight and appearance after exposure to humidity; format: physicochemical; settings: exposure to 70±5% relative humidity, at 25° C. for 24 hours

In the case of `CCC(=O)O[C@H](CC(=O)O)C[N+](C)(C)C` [Example 2, Propionyl L-carnitine L-leucinate Hydrochloride], the “Hygroscopicity of the solid” value [1] is reported as “non-hygroscopic”, the Appearance [2] is reported as “no variation” and the “Increase in weight (%)” value [2] is reported as 0.25%.
